Results are given in words; binding and its absence hold for the method and conditions named. Binding seen in cells or lysates may run through a third protein. Binding calls can cover weak binding; strength is not graded here.
Biological target: T1, BTB region of KCTD10 (truncated KCTD10 construct) (UniProt Q9H3F6)
T1 sequence: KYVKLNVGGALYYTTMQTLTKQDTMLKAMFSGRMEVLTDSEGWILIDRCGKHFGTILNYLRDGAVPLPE
Experiment: co-IP; cells transfected with 5 μg KCTD10 and β-catenin (full length or truncated), lysed after 30 h; immunoprecipitation with anti-Myc-tag or anti-HA-tag antibody and protein A/G beads, detection by HA-tag or Myc-tag

Armadillo repeat region (1–9) of β-catenin (deletion construct) (domain or fragment)
binding: binds
